The values that follow come from PubChem BioAssay AID248 (DTP/NCI, 2004).

This assay concerns L1210 leukemia ip in BDF1 mice, survival T/C. The assay is described as follows: NCI In Vivo Anticancer Drug Screen. Data for tumor model L1210 Leukemia (intraperitoneal) in B6D2F1 (BDF1) mice. The following applies: T/C endpoint: mean survival time, higher T/C = longer survival.
Setting [1] is: dose: 200.0 mg/kg/injection, schedule: Q04DX003 (ip), vehicle: saline with Tween-80.
[2] abbreviates: dose: 100.0 mg/kg/injection, schedule: Q04DX003 (ip), vehicle: saline.
The mark [3] stands for this setting: dose: 200.0 mg/kg/injection, schedule: Q04DX003 (ip), vehicle: saline.
Setting [4] is: dose: 400.0 mg/kg/injection, schedule: Q04DX003 (ip), vehicle: saline.
Setting [5] is: dose: 400.0 mg/kg/injection, schedule: Q01DX001 (ip), vehicle: saline.
Where [6] appears, read: dose: 400.0 mg/kg/injection, schedule: Q04DX003 (ip), vehicle: saline with Tween-80.
[7] abbreviates: dose: 100.0 mg/kg/injection, schedule: Q01DX001 (ip), vehicle: carboxymethylcellulose (CMC).

Each structure is given as a SMILES string. The list is a part of this screen's results and no random one: it is rich in T/C values a quarter to a half above the control, in often repeated tests (any T/C) and in doses without a T/C. Further doses and runs are listed elsewhere. T/C gives the treated animals as a percentage of the vehicle group. Some doses have a count of surviving animals in place of a T/C: the source files T/C as zero there, which appears to mark a toxic dose or a test without result, not a measured value. Some doses without a T/C left all or most animals alive at the check, yet need not have been tolerated: the source hardly ever lists a survival T/C far under the control, and the zero likely stands for such cases as well. Counts of survivors are from the toxicity check (mostly the fifth day) where no day follows; animals may have died later. Schedules are NCI's codes, taken here to give the interval after Q, in days (D) or hours (H), and the number of doses after X. Some schedule codes hold Z or #, which are not explained here. For survival time, the PubChem record calls one and a half times the control and up active, and a quarter to a half above the control has no call in these data; cut-offs in other NCI protocols can differ. Some T/C values carry the count of animals alive at the toxicity check (mostly the fifth day); without a count, all were alive then.

As to `CCC(C)N(C)/N=N/c1nc[nH]c1C(N)=O` (configuration not stated), the T/C by setting is: (dose: 12.5 mg/kg/injection, schedule: Q01DX009 (ip), vehicle: water) 127 % of control; (dose: 25.0 mg/kg/injection, schedule: Q01DX009 (ip), vehicle: Klucel (hydroxypropylcellulose) (HPC)) 135 % of control; (dose: 25.0 mg/kg/injection, schedule: Q01DX009 (ip), vehicle: water) 143 % of control; (dose: 38.0 mg/kg/injection, schedule: Q01DX009 (ip), vehicle: Klucel (hydroxypropylcellulose) (HPC)) 146 % of control; (dose: 50.0 mg/kg/injection, schedule: Q04DX003 (ip), vehicle: water) 132 % of control; (dose: 58.0 mg/kg/injection, schedule: Q01DX009 (ip), vehicle: Klucel (hydroxypropylcellulose) (HPC)) 146 % of control. Further, the T/C was 146 % of control (dose: 88.0 mg/kg/injection, schedule: Q01DX009 (ip), vehicle: Klucel (hydroxypropylcellulose) (HPC)); 137 % of control (dose: 100.0 mg/kg/injection, schedule: Q04DX003 (ip), vehicle: water); 127 % of control under setting [1]; 147 % of control (dose: 200.0 mg/kg/injection, schedule: Q04DX003 (ip), vehicle: water); 129 % of control (dose: 300.0 mg/kg/injection, schedule: Q04DX003 (ip), vehicle: saline with Tween-80); 137 % of control [9 of 10 alive] (dose: 400.0 mg/kg/injection, schedule: Q01DX001 (ip), vehicle: water). Moreover, the survivor count (dose: 200.0 mg/kg/injection, schedule: Q01DX009 (ip), vehicle: Klucel (hydroxypropylcellulose) (HPC)) is reported as 2 of 6; the survivor count (dose: 300.0 mg/kg/injection, schedule: Q01DX009 (ip), vehicle: Klucel (hydroxypropylcellulose) (HPC)) is given as 1 of 6; the survivor count (dose: 400.0 mg/kg/injection, schedule: Q04DX003 (ip), vehicle: water) is 10 of 10.
As for `C1=CC([P+](Cc2ccccc2)(c2ccccc2)c2ccccc2)CC1` (configuration not stated), the survivor count reads like this: under setting [2], 0 of 6; under setting [3], 0 of 6; under setting [4], 0 of 6.
Consider `CC1OC(O[C@H]2C[C@](O)(C(C)O)Cc3c(O)c4c(c(O)c32)C(=O)c2c(O)cccc2C4=O)CC(NC=O)C1O` (some centres not stated), for which the T/C is, setting by setting: (dose: 0.1 mg/kg/injection, schedule: Q01DX009 (ip), vehicle: saline) 126 % of control; (dose: 0.2 mg/kg/injection, schedule: Q01DX009 (ip), vehicle: saline) 133 % of control; (dose: 0.4 mg/kg/injection, schedule: Q01DX001 (ip), vehicle: saline) 138 % of control [5 of 6 alive]; (dose: 0.4 mg/kg/injection, schedule: Q01DX009 (ip), vehicle: saline) 133 % of control; (dose: 0.4 mg/kg/injection, schedule: Q03DX003 (ip), vehicle: saline) 140 % of control; (dose: 0.8 mg/kg/injection, schedule: Q03DX003 (ip), vehicle: saline) 145 % of control. Also, the T/C reads like this: (dose: 1.6 mg/kg/injection, schedule: Q01DX001 (ip), vehicle: saline) 143 % of control; (dose: 1.6 mg/kg/injection, schedule: Q03DX003 (ip), vehicle: saline) 140 % of control. The survivor count (dose: 0.8 mg/kg/injection, schedule: Q01DX001 (ip), vehicle: saline) is 2 of 6.
As for `C(=C\c1ccc(C2=NCCN2)cc1)/c1ccc(C2=NCCN2)cc1`, where the note is “dose: 92.0 mg/kg/injection, schedule: Q01DX Z (ip), vehicle: carboxymethylcellulose (CMC)”, the survivor count was 3 of 6.
For `c1c[nH]c(C2Nc3ccccc3S2)c1` (configuration not stated), the survivor count under setting [5] is listed as 3 of 6.
As to `Nc1ccc(S(=O)(=O)c2ccc(N)cn2)cc1`, the T/C (dose: 200.0 mg/kg/injection, schedule: Q04DX002 (ip), vehicle: Klucel (hydroxypropylcellulose) (HPC)) was 128 % of control.
With `CCCC#C/C=C1/C=CC(=O)O1`, the survivor count (dose: 300.0 mg/kg/injection, schedule: Q01DX001 (ip), vehicle: carboxymethylcellulose (CMC)) was 0 of 6.
For the compound `CCOC(=O)C(CCC(=O)O)NC(=O)OCc1ccccc1` (configuration not stated), the survivor count (dose: 200.0 mg/kg/injection, schedule: Q04DX003 (ip), vehicle: Klucel (hydroxypropylcellulose) (HPC)) is listed as 0 of 6; the survivor count (dose: 400.0 mg/kg/injection, schedule: Q01DX009 (ip), vehicle: Klucel (hydroxypropylcellulose) (HPC)) is 0 of 6; the survivor count (dose: 400.0 mg/kg/injection, schedule: Q04DX003 (ip), vehicle: Klucel (hydroxypropylcellulose) (HPC)) was 0 of 6.
Consider `CC(C)=NNP(Br)(c1ccccc1)(c1ccccc1)c1ccccc1`, for which the survivor count (dose: 75.0 mg/kg/injection, schedule: Q01DX001 (ip), vehicle: saline) is given as 0 of 6; the survivor count (dose: 150.0 mg/kg/injection, schedule: Q01DX001 (ip), vehicle: saline) is 0 of 6; the survivor count (dose: 300.0 mg/kg/injection, schedule: Q01DX001 (ip), vehicle: saline) is recorded as 0 of 6.
`Cc1ccccc1C[P+](c1ccccc1)(c1ccccc1)c1ccccc1`: the survivor count runs as follows: (dose: 25.0 mg/kg/injection, schedule: Q01DX009 (ip), vehicle: acetone) 4 of 6; (dose: 50.0 mg/kg/injection, schedule: Q01DX009 (ip), vehicle: acetone) 0 of 6; (dose: 100.0 mg/kg/injection, schedule: Q04DX003 (ip), vehicle: acetone) 0 of 6; (dose: 200.0 mg/kg/injection, schedule: Q04DX003 (ip), vehicle: acetone) 0 of 6; (dose: 400.0 mg/kg/injection, schedule: Q04DX003 (ip), vehicle: acetone) 0 of 6.
As for `CCC(CC)COCCCN`, the survivor count was 0 of 6 (dose: 100.0 mg/kg/injection, schedule: Q04DX003 (ip), vehicle: saline with Tween-80); 0 of 6 under setting [1]; 0 of 6 under setting [6].
Take `OCC#CCO`: the survivor count runs as follows: (dose: 12.0 mg/kg/injection, schedule: Q01DX009 (ip), vehicle: other) 0 of 6; (dose: 25.0 mg/kg/injection, schedule: Q01DX009 (ip), vehicle: other) 0 of 6; under setting [7], 0 of 4; under setting [2], 1 of 6; (dose: 200.0 mg/kg/injection, schedule: Q01DX001 (ip), vehicle: carboxymethylcellulose (CMC)) 0 of 4; under setting [3], 0 of 6. Also, the survivor count is 0 of 4 (dose: 400.0 mg/kg/injection, schedule: Q01DX001 (ip), vehicle: carboxymethylcellulose (CMC)) and 0 of 6 under setting [4].
Turning to `O=C(CN1CCCCC1)N1CCN(C(=O)CN2CCCCC2)CC1`, under setting [7], the T/C was 138 % of control and the survivor count is on record as 4 of 4. Also, the survivor count (dose: 150.0 mg/kg/injection, schedule: Q01DX001 (ip), vehicle: carboxymethylcellulose (CMC)) is 3 of 4.
On to `O=C(CCN1CC1)Nc1ccccc1`, for which the survivor count is given as 4 of 6 (dose: 100.0 mg/kg/injection, schedule: Q01DX009 (ip), vehicle: Klucel (hydroxypropylcellulose) (HPC)); 5 of 6 under setting [3]; 1 of 6 under setting [4].
On to `O=C(Nc1cccc(C2=NCCCN2)c1)c1ccc(C(=O)Nc2cccc(C3=NCCCN3)c2)c([N+](=O)[O-])c1`, for which the survivor count was 0 of 6 (dose: 1.0 mg/kg/injection, schedule: Q01DX015 (ip), vehicle: water); 0 of 6 (dose: 2.0 mg/kg/injection, schedule: Q01DX015 (ip), vehicle: water); 0 of 6 (dose: 4.0 mg/kg/injection, schedule: Q01DX015 (ip), vehicle: water).
Take `C1CCCCCC(C2CCCCCCCCCCC2)CCCCC1`: the survivor count reads like this: (dose: 200.0 mg/kg/injection, schedule: Q01DX001 (ip), vehicle: saline) 6 of 6; under setting [5], 6 of 6.
`O=C(/C=C/c1cccc([N+](=O)[O-])c1)CCl`: the survivor count is 1 of 6 under setting [1] and 0 of 6 under setting [6].
On to `CCCCCC(Oc1ccc(Cl)cc1Cl)C(=O)O` (configuration not stated), for which the survivor count (dose: 400.0 mg/kg/injection, schedule: Q04DX002 (ip), vehicle: Klucel (hydroxypropylcellulose) (HPC)) was 0 of 3.
